Laboratory results: PMC10540345
These are yes or no findings as the source states them, for the method shown. Binding seen in cells or lysates may run through a third protein. Some entries that bind do so weakly or less than the wild type.

The chains behind the UniProt entries cited, without tags or fusion partners.
UniProt P54578: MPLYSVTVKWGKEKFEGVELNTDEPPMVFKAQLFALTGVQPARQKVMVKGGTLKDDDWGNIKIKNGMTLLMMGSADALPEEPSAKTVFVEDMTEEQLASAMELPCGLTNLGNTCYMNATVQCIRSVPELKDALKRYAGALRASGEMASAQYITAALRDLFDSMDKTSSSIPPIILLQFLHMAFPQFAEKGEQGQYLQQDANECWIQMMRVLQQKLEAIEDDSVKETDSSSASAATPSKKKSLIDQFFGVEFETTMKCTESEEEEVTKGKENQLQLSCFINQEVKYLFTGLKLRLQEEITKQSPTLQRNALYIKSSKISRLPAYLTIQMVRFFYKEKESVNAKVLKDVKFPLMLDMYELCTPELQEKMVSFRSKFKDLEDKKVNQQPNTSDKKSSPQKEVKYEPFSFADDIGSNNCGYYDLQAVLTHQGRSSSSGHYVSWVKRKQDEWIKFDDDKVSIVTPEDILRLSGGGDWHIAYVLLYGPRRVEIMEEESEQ
UniProt P35579: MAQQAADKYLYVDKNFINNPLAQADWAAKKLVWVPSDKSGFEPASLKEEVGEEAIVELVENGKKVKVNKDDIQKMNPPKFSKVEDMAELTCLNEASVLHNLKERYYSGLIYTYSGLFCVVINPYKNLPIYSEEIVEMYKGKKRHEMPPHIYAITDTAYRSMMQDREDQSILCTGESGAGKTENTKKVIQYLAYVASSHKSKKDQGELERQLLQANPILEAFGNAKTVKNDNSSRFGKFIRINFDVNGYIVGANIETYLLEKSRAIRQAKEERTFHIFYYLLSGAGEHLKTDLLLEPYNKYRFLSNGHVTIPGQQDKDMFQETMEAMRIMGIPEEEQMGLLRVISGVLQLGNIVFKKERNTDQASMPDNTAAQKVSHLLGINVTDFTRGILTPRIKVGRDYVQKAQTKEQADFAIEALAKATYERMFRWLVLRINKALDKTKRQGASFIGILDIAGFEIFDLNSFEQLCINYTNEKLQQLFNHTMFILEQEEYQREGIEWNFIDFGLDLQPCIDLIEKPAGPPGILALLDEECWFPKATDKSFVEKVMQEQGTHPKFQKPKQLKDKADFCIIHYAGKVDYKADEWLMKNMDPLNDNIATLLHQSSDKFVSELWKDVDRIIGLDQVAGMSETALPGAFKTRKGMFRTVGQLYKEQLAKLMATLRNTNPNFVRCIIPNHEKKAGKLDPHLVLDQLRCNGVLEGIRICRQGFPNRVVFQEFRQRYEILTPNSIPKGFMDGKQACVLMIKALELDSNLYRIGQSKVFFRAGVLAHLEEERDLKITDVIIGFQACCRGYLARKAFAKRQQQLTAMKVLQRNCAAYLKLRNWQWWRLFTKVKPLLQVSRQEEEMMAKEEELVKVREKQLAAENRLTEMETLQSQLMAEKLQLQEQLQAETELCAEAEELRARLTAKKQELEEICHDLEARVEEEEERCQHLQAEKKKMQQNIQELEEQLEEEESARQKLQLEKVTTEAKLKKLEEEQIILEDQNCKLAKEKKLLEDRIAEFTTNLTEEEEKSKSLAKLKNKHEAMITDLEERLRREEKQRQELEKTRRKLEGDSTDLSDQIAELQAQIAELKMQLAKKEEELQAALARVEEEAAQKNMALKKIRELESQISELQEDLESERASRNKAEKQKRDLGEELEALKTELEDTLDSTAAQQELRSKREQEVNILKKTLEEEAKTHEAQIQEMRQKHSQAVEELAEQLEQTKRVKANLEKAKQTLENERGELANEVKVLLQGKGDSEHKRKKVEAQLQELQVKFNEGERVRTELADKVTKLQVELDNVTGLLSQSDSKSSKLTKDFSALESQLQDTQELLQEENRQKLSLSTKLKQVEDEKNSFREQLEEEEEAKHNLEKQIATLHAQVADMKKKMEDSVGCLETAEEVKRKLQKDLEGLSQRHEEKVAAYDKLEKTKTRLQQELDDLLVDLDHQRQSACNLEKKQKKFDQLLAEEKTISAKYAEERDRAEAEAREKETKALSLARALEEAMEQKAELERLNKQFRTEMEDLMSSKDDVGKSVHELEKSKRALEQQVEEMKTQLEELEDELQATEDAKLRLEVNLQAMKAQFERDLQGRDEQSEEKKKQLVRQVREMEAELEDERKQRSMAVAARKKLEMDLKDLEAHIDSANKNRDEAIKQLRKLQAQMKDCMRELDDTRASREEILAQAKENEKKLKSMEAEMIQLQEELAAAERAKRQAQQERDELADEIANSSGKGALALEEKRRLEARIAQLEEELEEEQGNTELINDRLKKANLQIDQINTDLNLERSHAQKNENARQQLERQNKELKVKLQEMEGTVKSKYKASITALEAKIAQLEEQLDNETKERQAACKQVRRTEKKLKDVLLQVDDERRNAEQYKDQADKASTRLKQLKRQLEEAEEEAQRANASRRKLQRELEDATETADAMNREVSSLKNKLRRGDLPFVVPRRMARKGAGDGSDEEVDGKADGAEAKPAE

Columns and labels:
[1] = target: T1, Nucleosome assembly protein 1 Like 1 (NAP1L1) (human (endogenous in U87 and LN229)) (UniProt P55209); test: co-IP; endogenous proteins in lysates of U87 and LN229 cells (Pierce IP Lysis buffer with protease and phosphatase inhibitors), antibodies and magnetic beads, western blot; NAP1L1 with c-Myc also after si-MYH9 in LN229 (interaction weakened)
T1 sequence: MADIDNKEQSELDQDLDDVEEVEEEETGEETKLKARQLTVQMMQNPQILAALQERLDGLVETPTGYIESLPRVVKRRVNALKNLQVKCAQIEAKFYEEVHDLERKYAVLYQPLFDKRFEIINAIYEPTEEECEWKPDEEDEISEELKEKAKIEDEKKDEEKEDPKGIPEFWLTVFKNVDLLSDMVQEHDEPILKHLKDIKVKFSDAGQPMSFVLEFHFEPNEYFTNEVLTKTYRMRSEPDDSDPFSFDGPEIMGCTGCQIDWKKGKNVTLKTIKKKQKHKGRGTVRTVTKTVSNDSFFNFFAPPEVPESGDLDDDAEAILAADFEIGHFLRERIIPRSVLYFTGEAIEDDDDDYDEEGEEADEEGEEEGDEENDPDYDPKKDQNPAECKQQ

[2] = target: USP14 (human (endogenous in LN229 and U87)) (UniProt P54578); test: as above

binding [1]: binds | binding [2]: binds
Substance: Myosin heavy chain 9 (MYH9) (from UniProt P35579 1-1960)
